Measurements as given in PMC1156946.
Results are given in words; binding and its absence hold for the method and conditions named. For some assays here: In cells and extracts the contact can be indirect. Some binding calls cover weakened binding; strength is not graded here.

By UniProt entry, the sequences of proteins in these tests, tags left out. Residues count along the entry.
UniProt P55211, residues 1-111: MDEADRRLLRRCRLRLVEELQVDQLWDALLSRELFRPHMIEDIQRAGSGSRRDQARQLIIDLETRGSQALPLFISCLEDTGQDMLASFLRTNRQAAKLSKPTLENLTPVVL
UniProt P78560, residues 9-95: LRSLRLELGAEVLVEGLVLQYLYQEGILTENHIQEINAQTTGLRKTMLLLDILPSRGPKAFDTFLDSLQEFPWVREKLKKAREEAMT
UniProt Q9ULZ3, residues 92-195: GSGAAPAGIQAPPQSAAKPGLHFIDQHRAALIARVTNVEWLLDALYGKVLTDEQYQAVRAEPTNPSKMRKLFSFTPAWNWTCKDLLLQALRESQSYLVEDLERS
UniProt O14727, residues 1-108: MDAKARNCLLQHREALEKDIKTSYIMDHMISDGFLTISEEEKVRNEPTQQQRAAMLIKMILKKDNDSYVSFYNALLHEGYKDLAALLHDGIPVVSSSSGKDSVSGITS
UniProt Q9Y2G2, residues 447-537: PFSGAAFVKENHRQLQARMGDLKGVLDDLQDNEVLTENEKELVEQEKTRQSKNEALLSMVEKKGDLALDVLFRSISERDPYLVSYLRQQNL

Key:
[1] = molecular target: T1, BCL10 (cellular homolog of the equine herpesvirus-2 E10 gene containing an amino-terminal caspase recruitment domain) CARD domain (residues 1-104) (human) (UniProt O95999); assay: native gel or EMSA; native binding assay: equal amounts of purified His-tagged proteins incubated overnight at 4°C in 50 mM Tris, 100 mM NaCl, pH 8.0; continuous non-denaturing 10% PAGE, Coomassie blue staining; both purified
T1 sequence: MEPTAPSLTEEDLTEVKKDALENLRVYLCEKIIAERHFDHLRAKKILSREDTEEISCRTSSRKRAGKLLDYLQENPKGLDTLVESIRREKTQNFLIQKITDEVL

[2] = molecular target: T1, BCL10 (cellular homolog of the equine herpesvirus-2 E10 gene containing an amino-terminal caspase recruitment domain) CARD domain (residues 1-104) (human); assay: pull-down; co-expression in E. coli BL21(DE3) of a pET-28b (His) and a pGEX-2T (GST) construct; lysate in 50 mM Tris pH 8.0, 100 mM NaCl; Ni-NTA capture of the His-tagged protein, imidazole elution, SDS-PAGE with silver stain; both directions tested
[3] = molecular target: caspase-9 CARD domain (residues 1-111) (human) (UniProt P55211); assay: as above
[4] = molecular target: caspase-9 CARD domain (residues 1-111) (human) (UniProt P55211); assay: native gel or EMSA; induced denaturation-renaturation: equal amounts of purified proteins dialysed together against 8 M urea buffer, then renaturation buffer (2 M urea, 2 mM MgCl2, 5% glycerol) and binding buffer; continuous non-denaturing 10% PAGE, Coomassie blue staining; both purified
[5] = molecular target: Receptor-Interacting Protein (RIP)-Associated protein with a Death domain (RAIDD) CARD domain (residues 9-95) (human) (UniProt P78560); assay: co-IP; lysates of co-expressing E. coli immunoprecipitated with anti-6xHis or anti-GST antibody; western blot with anti-GST and anti-6xHis
[6] = molecular target: T2, NAC (apoptotic protein containing a nucleotide binding domain and a CARD domain) CARD domain (residues 1373-1473) (human) (UniProt Q9C000); assay: co-IP; equal amounts of E. coli recombinant proteins incubated in 50 uL rabbit reticulocyte lysate (Promega) at 4°C for 1 hour; immunoprecipitation with anti-6xHis, western blot with anti-GST
T2 sequence: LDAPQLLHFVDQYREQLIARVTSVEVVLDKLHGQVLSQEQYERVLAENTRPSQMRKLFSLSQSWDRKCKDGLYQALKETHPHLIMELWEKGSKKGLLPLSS

[7] = molecular target: T2, NAC (apoptotic protein containing a nucleotide binding domain and a CARD domain) CARD domain (residues 1373-1473) (human); assay: pull-down; co-expression in E. coli BL21(DE3) of a pET-28b (His) and a pGEX-2T (GST) construct; lysate in 50 mM Tris pH 8.0, 100 mM NaCl; Ni-NTA capture of the His-tagged protein, imidazole elution, SDS-PAGE with silver stain; both directions tested
[8] = molecular target: Receptor-Interacting Protein (RIP)-Associated protein with a Death domain (RAIDD) CARD domain (residues 9-95) (human) (UniProt P78560); assay: as above
[9] = molecular target: T2, NAC (apoptotic protein containing a nucleotide binding domain and a CARD domain) CARD domain (residues 1373-1473) (human); assay: co-IP; lysates of co-expressing E. coli immunoprecipitated with anti-6xHis or anti-GST antibody; western blot with anti-GST and anti-6xHis
[10] = molecular target: Apoptosis-associated Speck-like protein containing a CARD (ASC) CARD domain (residues 92-195) (human) (UniProt Q9ULZ3); assay: native gel or EMSA; native binding assay: equal amounts of purified His-tagged proteins incubated overnight at 4°C in 50 mM Tris, 100 mM NaCl, pH 8.0; continuous non-denaturing 10% PAGE, Coomassie blue staining; both purified
[11] = molecular target: Apoptosis-associated Speck-like protein containing a CARD (ASC) CARD domain (residues 92-195) (human) (UniProt Q9ULZ3); assay: pull-down; co-expression in E. coli BL21(DE3) of a pET-28b (His) and a pGEX-2T (GST) construct; lysate in 50 mM Tris pH 8.0, 100 mM NaCl; Ni-NTA capture of the His-tagged protein, imidazole elution, SDS-PAGE with silver stain; both directions tested
[12] = molecular target: Apoptotic Protein Activating Factor-1 (Apaf-1) CARD domain (residues 1-108) (human) (UniProt O14727); assay: as above
[13] = molecular target: T3, CLAN (apoptotic protein containing a CARD domain, a Leucine rich repeat domain and a NACHT domain) CARD domain (residues 1-87) (human) (UniProt Q9NPP4); assay: as above
T3 sequence: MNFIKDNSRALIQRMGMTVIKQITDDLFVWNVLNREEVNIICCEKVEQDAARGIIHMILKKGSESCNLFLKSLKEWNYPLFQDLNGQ

[14] = molecular target: Apoptotic Protein Activating Factor-1 (Apaf-1) CARD domain (residues 1-108) (human) (UniProt O14727); assay: native gel or EMSA; induced denaturation-renaturation: equal amounts of purified proteins dialysed together against 8 M urea buffer, then renaturation buffer (2 M urea, 2 mM MgCl2, 5% glycerol) and binding buffer; continuous non-denaturing 10% PAGE, Coomassie blue staining; both purified
[15] = molecular target: T3, CLAN (apoptotic protein containing a CARD domain, a Leucine rich repeat domain and a NACHT domain) CARD domain (residues 1-87) (human); assay: as above
[16] = molecular target: CARD9 CARD domain (residues 14-100) (human) (UniProt Q9H257); assay: co-IP; lysates of co-expressing E. coli immunoprecipitated with anti-6xHis or anti-GST antibody; western blot with anti-GST and anti-6xHis
[17] = molecular target: Receptor-Interacting Protein (RIP)-Associated protein with a Death domain (RAIDD) CARD domain (residues 9-95) (human) (UniProt P78560); assay: co-IP; equal amounts of E. coli recombinant proteins incubated in 50 uL rabbit reticulocyte lysate (Promega) at 4°C for 1 hour; immunoprecipitation with anti-6xHis, western blot with anti-GST
[18] = molecular target: CARD9 CARD domain (residues 14-100) (human) (UniProt Q9H257); assay: pull-down; co-expression in E. coli BL21(DE3) of a pET-28b (His) and a pGEX-2T (GST) construct; lysate in 50 mM Tris pH 8.0, 100 mM NaCl; Ni-NTA capture of the His-tagged protein, imidazole elution, SDS-PAGE with silver stain; both directions tested
[19] = molecular target: Apoptosis-associated Speck-like protein containing a CARD (ASC) CARD domain (residues 92-195) (human) (UniProt Q9ULZ3); assay: co-IP; equal amounts of E. coli recombinant proteins incubated in 50 uL rabbit reticulocyte lysate (Promega) at 4°C for 1 hour; immunoprecipitation with anti-6xHis, western blot with anti-GST

Measured: binding

Apoptosis-associated Speck-like protein containing a CARD (ASC) CARD domain (residues 92-195) (from UniProt Q9ULZ3 92-195) (domain or fragment)
binds: [1] | [2]

Tumor Up-regulated CARD-containing Antagonist of caspase-Nine (TUCAN) CARD domain (residues 341-431) (from UniProt Q9Y2G2-1 341-431) (domain or fragment)
binds: [3] | [4]

Receptor-Interacting Protein (RIP)-Associated protein with a Death domain (RAIDD) CARD domain (residues 9-95) (from UniProt P78560 9-95) (domain or fragment)
binds: [5] | [6] | [7] | [8]

B1: NAC (apoptotic protein containing a nucleotide binding domain and a CARD domain) CARD domain (residues 1373-1473) (domain or fragment, UniProt Q9C000 1373-1473)
chain: LDAPQLLHFVDQYREQLIARVTSVEVVLDKLHGQVLSQEQYERVLAENTRPSQMRKLFSLSQSWDRKCKDGLYQALKETHPHLIMELWEKGSKKGLLPLSS
binds: [9] | [10] | [11] | [12] | [13] | [7] | [14] | [15]

B2: CARD9 CARD domain (residues 14-100) (domain or fragment, UniProt Q9H257 14-100)
chain: LEGFRVTLTSVIDPSRITPYLRQCKVLNPDDEEQVLSDPNLVIRKRKVGVLLDILQRTGHKGYVAFLESLELYYPQLYKKVTGKEPA
binds: [16] | [17] | [18] | [8]

B3: CLAN (apoptotic protein containing a CARD domain, a Leucine rich repeat domain and a NACHT domain) CARD domain (residues 1-87) (domain or fragment, UniProt Q9NPP4 1-87)
chain: MNFIKDNSRALIQRMGMTVIKQITDDLFVWNVLNREEVNIICCEKVEQDAARGIIHMILKKGSESCNLFLKSLKEWNYPLFQDLNGQ
binds: [11]

B4: ICEBERG (caspase-1 inhibitor) CARD domain (residues 1-90) (domain or fragment, UniProt P57730 1-90)
chain: MADQLLRKKRRIFIHSVGAGTINALLDCLLEDEVISQEDMNKVRDENDTVMDKARVLIDLVTGKGPKSCCKFIKHLCEEDPQLASKMGLH
binds: [19] | [11]
